The whole screen tested about 300,000 compounds, of which about 2,300 (0.77%) were called active. Inconclusive results, whose numbers are uncertain, are shown with a selection of clear calls.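 How the source made its calls: active means more than half of replicate wells show activity change below -50%, luminescence cut by over half; inconclusive means some wells, but at most half, below -50%; inactive means no replicate well below -50%.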
Test: HSF1 inhibitors in luciferase reporter cells, primary screen, cell-based, NIH3T3, luminescence (AID 2098);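 further: luciferase reports HSF-1 transcriptional activity via heat shock element; 0% = median of DMSO wells and -100% = zero luminescence signal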
Conditions: NIH3T3-HGL HSE-luciferase, MG132-induced, luminescence 8 h; stronger effect = lower value; screened at 7.5 µM (by protocol)

Row | SMILES | activity change, negative = inhibition
1 | COc1ccc(/C=N/NC(=O)c2cc(-c3cccn3C)n[nH]2)cc1OC | inconclusive: -57.8%
2 | CC(C)N(c1ccccc1)c1ccc(NC(=O)CCl)cc1 | inconclusive: -26.5%
3 | COc1c(Cl)cccc1-c1cn2ccccc2n1 | inconclusive: -27.5%
4 | Cc1cc(C)cc(NC(=O)Nc2cccc(S(N)(=O)=O)c2)c1 | inconclusive: -33.6%
5 | CCc1ccc(C(=O)N/N=C(\C)c2ccncc2)s1 | active: -73.7%
6 | COc1ccc(-n2nc(C)cc2N)cc1 | inconclusive: -40.3%
7 | O=C(CN1C(=O)c2ccccc2S1(=O)=O)c1ccccc1Cl | inconclusive: -51.4%
8 | O=C(N/N=C/c1ccncc1)c1ccc(COc2cccc3cccnc23)cc1 | inactive: -9.8%
9 | Cc1cc([N+](=O)[O-])nn1CC(=O)NCc1nc2ccccc2[nH]1 | inconclusive: -27.9%
10 | COc1ccc(C(=O)Nn2c(SCc3ccc([N+](=O)[O-])cc3)nc3ccccc3c2=O)cc1 | inconclusive: -50.1%
11 | Cc1cc(C(=O)NCc2ccc(Cl)cc2)n(-c2ccccc2)n1 | active: -68.2%
12 | CC(C)(C)c1nnc2sc(SCC(=O)c3ccccc3)nn2c1=O | inactive: 0.339%
13 | CCN1CCN(CCc2nc3cc(NC(=O)COc4ccc(Cl)cc4)ccc3n2C)CC1 | inactive: 9.65%
14 | Cc1[nH]nc(N=CC2=C(O)CC(C)(C)CC2=O)c1-c1ccccc1 | inactive: 20.7%
15 | CC(=O)COc1ccccc1OC(=O)c1ccco1 | active: -51.1%
16 | COc1ccc(Nc2nc(C)cc(C)c2C#N)cc1OC | inconclusive: -49.8%
17 | Cc1ccc(C(=O)N2CCn3c(C)ccc3C2C)cc1 (configuration not stated) | inconclusive: -38.2%
18 | O=C(CSc1nccn1-c1ncc(C(F)(F)F)cc1Cl)c1ccc(Cl)cc1 | inconclusive: -48.1%
19 | CC(=O)n1cc(N(C(=O)CCl)c2ccc(Cl)cc2)c2ccccc21 | active: -83.6%

Row | SMILES | activity change, negative = inhibition
20 | C=CCn1c(-c2ccc(C)cc2)nc2ccccc21 | inactive: 2.01%
21 | CC1=NNC(=O)/C1=C\c1cn(-c2ccccc2)nc1-c1ccc(Cl)cc1 | inconclusive: -56.6%
22 | COc1nc(N)c(C#N)c(-c2ccc(N(C)CCC#N)cc2)c1C#N | inconclusive: -48.9%
23 | CCOC(=O)c1cc2occc2n1CC(=O)N1CCOCC1 | inconclusive: -32%
24 | CC(Sc1nc2ccccc2s1)C(=O)Nc1nnc(C(C)C)s1 (configuration not stated) | active: -63.1%
25 | CCC(C)(C)n1nnnc1C(c1ccc(C)cc1)N1CCC(C)CC1 (configuration not stated) | inconclusive: -38.2%
26 | O=C(CCC(=O)Nc1cccc(Cl)c1)N/N=C/c1cc([N+](=O)[O-])ccc1O | inconclusive: -52.5%
27 | COc1ccc(OCC(=O)Nc2cc(-c3nn(C)c(=O)c4ccccc34)ccc2N2CCOCC2)cc1 | inactive: 0.94%
28 | Cc1c(NC(=S)NC(=O)c2sc3ccccc3c2Cl)cccc1C(=O)O | inconclusive: -52.2%
29 | CCC(C)(C)C1CCc2c(sc(NC(=O)c3ccoc3C)c2C(N)=O)C1 (configuration not stated) | inactive: -5.04%
30 | COc1ccccc1-c1cc(C(F)(F)F)nc(S(=O)(=O)CCCC(=O)N2CCOCC2)n1 | inconclusive: -59.5%
31 | O=C(NC1CC1)C1=C[C@H](c2coc3ccccc3c2=O)C[C@H](OCCCCO)O1 | inactive: -5.11%
32 | COc1cc(SC)ccc1C(=O)Nc1nc(C)cs1 | active: -63.8%
33 | Cc1cc(S(=O)(=O)N2CCCC2)ccc1OCC(=O)NCc1ccccc1 | active: -77.2%
34 | Cc1ccc(F)c(NC(=O)c2ccc(Cn3cc(Cl)cn3)cc2)c1 | inconclusive: -48%
35 | O=C(CN1CCN(C(=O)c2ccccc2)CC1)Nc1ncc(Br)cc1Br | inconclusive: -56.6%
36 | O=C(COC(=O)c1cnccn1)Nc1ccc(Cl)cn1 | inconclusive: -48.5%
37 | Cc1c(NC(=O)c2ccc(S(=O)(=O)N3CCOCC3)cc2)cccc1[N+](=O)[O-] | inconclusive: -22.3%
38 | COc1ccc(NC2=Nc3ccccc3N3C2=Nc2c(c(C)nn2-c2ccc(C)cc2)C3c2cccnc2)cc1 (configuration not stated) | active: -81%

In the list so far, 2 contain a cyano group.
Row | SMILES | activity change, negative = inhibition
16 | COc1ccc(Nc2nc(C)cc(C)c2C#N)cc1OC | inconclusive: -49.8%
22 | COc1nc(N)c(C#N)c(-c2ccc(N(C)CCC#N)cc2)c1C#N | inconclusive: -48.9%

Additional compounds:

Row | SMILES | activity change, negative = inhibition
39 | CCOC(=O)c1cn[nH]c1NC(=S)Nc1ccc(OC)cc1 | active: -53.7%
40 | CC(=O)N/C(=C/c1ccccc1)C(=O)N1CCCCC1 | inconclusive: -29.7%
41 | CN(C)/C=C/C(=O)c1ccc(-c2ccc(Cl)cc2Cl)o1 | inconclusive: -48.8%
42 | CCN(CC)S(=O)(=O)c1ccc2c(c1)c(=O)c(C(=O)NCc1ccco1)cn2C | active: -90.4%
43 | COc1ccccc1N1CCN(Cc2cc(Br)c(O)c3ncccc23)CC1 | active: -80.5%
44 | Cc1ccc(Cl)cc1N1CCN(S(=O)(=O)c2ccc3c(c2)CC(=O)N3C)CC1 | inconclusive: -49.2%
45 | CCCCOc1ccc(C2C(C(=O)c3ccc(C)o3)=C(O)C(=O)N2Cc2ccco2)cc1 (configuration not stated) | inconclusive: -58%
46 | COc1ccc(-n2c(-c3ccc(Br)cc3)nc(=S)c3c2CCCC3)cc1 | inconclusive: -49.5%
47 | CC(C)CC[n+]1ccn(-c2nc3ccccc3nc2[N-]S(=O)(=O)c2ccc(Cl)cc2)c1 | inactive: 8.62%
48 | CCOc1ccc(/C=C2\SC(=O)N(CCNC(=O)C3COc4ccccc4O3)C2=O)cc1OC (configuration not stated) | inconclusive: -53.8%
49 | Clc1ccc(CN2C3=NCCCN3c3ccccc32)cc1Cl | inconclusive: -27.8%
50 | O=C(Nc1ccc2[nH]ncc2c1)c1ccccc1Br | inactive: 6.73%
51 | CCN(Cc1ccc2c(c1)OCO2)C(=O)/C=C/c1cccc(Br)c1 | active: -73.9%
52 | CCCC1c2ccc(C)n2CCN1C(=O)Nc1ccc(F)cc1 (configuration not stated) | active: -65.9%
53 | O=C(O)c1ccc2c(=O)n3c(nc2c1)/C(=C/c1ccc(OC(F)F)cc1OC(F)F)CC3 | inconclusive: -31.2%
54 | C=CCc1cccc2cc(C(=O)Nc3ccc(F)cc3)c(=O)oc12 | inconclusive: -14%
55 | CCC(=O)Nc1c(-c2ccc(Cl)cc2)c(=O)c2ccccc2n1C | inconclusive: -49.3%
56 | O=[N+]([O-])c1cccc(C=NNc2ccc3ccccc3n2)c1O | inconclusive: 41.5%
57 | Cc1ccc(S(=O)(=O)n2ccc(=O)[nH]2)cc1 | active: -68.3%

— PubChem BioAssay AID2098 (Broad Institute, 2009)
